Assay results taken from publication PMC10163288.
The other results are listed elsewhere or left out.

B1: il10ra_site1_normal_mot_HHH_b2_07579_000000275_0001_1_19_H_._HHH_b2_07760_0001_0000200028_0000001_0_af2pred_0001 (protein)
chain: SSSSDEIEELLRLIRKAAELLRKGDPEKAREVLEQAEELAEELGNRLTLHALKSLQHNVDSSSSS
B2: il10ra_site1_normal_mot_HHH_b2_08186_000000021_0001_43_56_H_._HHH_b1_05775_af2_0002_0000700031_0000002_0 (protein)
chain: SSSSEEERVEELQEEIKELEEEGDLKRVLRLLQEILRLIYRLGDAELLRRLWELLKELERRQSSS
B3: il10ra_site1_sap_15_mot_HHH_b2_07540_000000184_0001_1_15_H_._466e3adc427fd7647ce2a7b00f41f3a6_0001_af2_0001_0000100002_0000002_0_0001 (protein)
chain: SSSSDAEELAEEVIEELKELRERGDHDEVYRLVKEAIEQLIELNNQEALRLLMEFVARLFSSSSS
B4: il10ra_site1_sap_20_mot_HHH_b1_03314_af2_000000278_0001_42_55_H_._HHH_b2_01043_0001_0000400013_0000001_0_0001_af2pred_0001 (protein)
chain: SSSSDTEELREEVEELLRKLEELGDEEAVRQLRILLKAAEQNKNPRSLEAAARLAEDALKLSSSS
B5: il10ra_site1_normal_mot_HHH_b1_05937_af2_000000262_0001_20_37_H_._HHH_b2_05818_af2_0001_0000300009_0000001_0 (protein)
chain: SSSSDEEEVEERVEELLERAEKIEDLHEVLRLLIEALRLAFEARDDELLQLIWEVAEELRSSSSS
B6: il10ra_site1_sap_17_mot_HHH_b2_02933_000000199_0001_1_19_H_._HHH_b2_04719_af2_0001_0000800038_0000001_0_0001_af2pred_0001 (protein)
chain: SSSSSDEEEVEKRIEELLEEAKHIPDRHRAAYALIRAYALANEVRSEELRRLVEEVAKRLSSSSS
B7: il10ra_site1_sap_20_mot_HHH_b1_05189_000000097_0001_43_57_H_._HHH_b2_08174_af2_0001_0000100002_0000001_0_0001 (protein)
chain: SSSSSSEEEEVRREVEELLEEAKEVDREEAMKLLLRAIRLAYQVSDPELLQLIWEVLRRNSSSSS
B8: il10ra_site1_normal_mot_15066a8f41c19a04ca9a9f0a9d91fe83_0001_000000267_0001_1_12_H_._230fcc1677eb0c512f32732c1a7e1c83_0001_0001_0000200007_0000001_0 (protein)
chain: SQNEEALKYLIEQNSPIIKFTIEALERAVELGDPSARELVEELLELAKELGNEEIEELLEEVLRR
B9: il10ra_site1_sap_19_mot_HHH_eva_0271_af2_000000157_0001_1_17_H_._HHH_b1_07722_0001_0000200013_0000001_0_0001 (protein)
chain: SSSSDDEVSQEIYELIQKAAELANEGDEEEAEKVLERAKELAEELGNRLFLMQIEFLERHASSSS
B10: il10ra_site1_normal_mot_HHH_b2_03438_af2_000000049_0001_18_34_H_._HHH_b1_02262_0001_0000200021_0000002_0 (protein)
chain: SSSSDEEEQRVEELLRRAEELIEEGNPEEAYELLREAAELAHELEDPELSRRVLEVSRKLTSSSS
B11: il10ra_site1_normal_mot_HHH_b1_05088_af2_000000046_0001_20_36_H_._HHH_b2_08025_0001_0000200022_0000001_0 (protein)
chain: SSSSSDLEEEVEELLEEAREIEDPEERYKVLKEAIEVASERGDPELFRLIMKFLEELFRGSSSSS
B12: il10ra_site1_normal_mot_HHH_b2_06979_000000158_0001_42_57_H_._HHH_b2_00250_0001_0000300009_0000001_0 (protein)
chain: SSSSTEVQELYELARRLVEALAEGDEELVRELAEELEKLAEELNNELFLINARFILRDVESSSSS
B13: il10ra_site1_sap_19_mot_HHH_b1_06786_000000000_0001_1_20_H_._HHH_b1_00949_0001_0000500018_0000002_0_0001 (protein)
chain: SSSSDEEREEVEELLEEAEQIEDPEERIKVLFRAVHLANQAGDPEATRAVWEVFRRLIKNSSSSS
B14: il10ra_site1_normal_mot_HHH_b2_03220_af2_000000223_0001_23_40_H_._HHH_b2_00293_0001_0000200015_0000002_0 (protein)
chain: SSSSSEENEEAWEIIKEILEAAQRNDEERLEELLERLEELVRQSGSPIFEFSLRILERQLSSSSS
B15: il10ra_site1_sap_18_mot_HHH_b2_00943_af2_000000149_0001_1_17_H_._HHH_b2_04128_af2_0001_0000300012_0000002_0_0001 (protein)
chain: SSSSSSWRELAREAMFLAARKGDQQASVEVIRIYAAVEQGEAPEEWAEEALKELIEELKSSSSSS
B16: il10ra_site1_normal_mot_HHH_b2_00988_000000064_0001_1_19_H_._HHH_b1_01270_af2_0001_0000100003_0000001_0 (protein)
chain: SSSDLEERVEKIVKELKELLEEGDPDEFYKLLRELIELAHEYNDEEAEELAHELIREFIRKSSSS
B17: il10ra_site1_sap_18_mot_0c70b1737afd558c88fc2c362a6b1452_0001_1_af2_000000019_0001_15_31_H_._fe74bfd50694bb190af954a823403fd2_0001_0001_0001100013_0000001_0_000 … (protein)
chain: SSSSSDQLEEFEERIEELIRRGDLEEAEELLKELAEIVLQKRDEEAAEVYLRLWVEIARLSSSSS
B18: il10ra_site1_normal_mot_HHH_b1_02708_af2_000000019_0001_23_39_H_._HHH_b1_04932_0001_0000500050_0000001_0 (protein)
chain: SSSSSEEEERISELLQRIVRLVAEGDPERAQELLEEVRELIEEAGDDEFERYLEILERFLNSSSS
B19: il10ra_site1_normal_mot_HHH_b1_00929_000000068_0001_1_20_H_._HHH_b1_00134_0001_0000500065_0000001_0 (protein)
chain: SSSSDEELEETLRELREAAEEGDLELFWELARKALELARELGDEEALREIQRLVRLILENASSSS

biological target: il10ra, Q13651; assay: yeast display titration

Binder	apparent Kd
B1	inactive: no binding seen
B2	inactive: no binding seen
B3	inactive: no binding seen
B4	inactive: no binding seen
B5	inactive: no binding seen
B6	inactive: no binding seen
B7	inactive: no binding seen
B8	inactive: no binding seen
B9	inactive: no binding seen
B10	inactive: no binding seen
B11	inactive: no binding seen
B12	inactive: no binding seen
B13	inactive: no binding seen
B14	inactive: no binding seen
B15	inactive: no binding seen
B16	inactive: no binding seen
B17	inactive: no binding seen
B18	inactive: no binding seen
B19	inactive: no binding seen

Some of the entries so far, bar-delimited:
Binder | apparent Kd
B16 | inactive: no binding seen
B17 | inactive: no binding seen
